Experimental data as given in publication PMC3107242.
These are yes or no findings as the source states them, for the method shown. In cells and extracts the contact can be indirect. Some binding calls cover weakened binding; strength is not graded here.

Amino acid sequences for entries named in this document (tags omitted). A change or cut given only in a name is not applied to a line headed by its entry. Residues count along the entry.
UniProt P19109: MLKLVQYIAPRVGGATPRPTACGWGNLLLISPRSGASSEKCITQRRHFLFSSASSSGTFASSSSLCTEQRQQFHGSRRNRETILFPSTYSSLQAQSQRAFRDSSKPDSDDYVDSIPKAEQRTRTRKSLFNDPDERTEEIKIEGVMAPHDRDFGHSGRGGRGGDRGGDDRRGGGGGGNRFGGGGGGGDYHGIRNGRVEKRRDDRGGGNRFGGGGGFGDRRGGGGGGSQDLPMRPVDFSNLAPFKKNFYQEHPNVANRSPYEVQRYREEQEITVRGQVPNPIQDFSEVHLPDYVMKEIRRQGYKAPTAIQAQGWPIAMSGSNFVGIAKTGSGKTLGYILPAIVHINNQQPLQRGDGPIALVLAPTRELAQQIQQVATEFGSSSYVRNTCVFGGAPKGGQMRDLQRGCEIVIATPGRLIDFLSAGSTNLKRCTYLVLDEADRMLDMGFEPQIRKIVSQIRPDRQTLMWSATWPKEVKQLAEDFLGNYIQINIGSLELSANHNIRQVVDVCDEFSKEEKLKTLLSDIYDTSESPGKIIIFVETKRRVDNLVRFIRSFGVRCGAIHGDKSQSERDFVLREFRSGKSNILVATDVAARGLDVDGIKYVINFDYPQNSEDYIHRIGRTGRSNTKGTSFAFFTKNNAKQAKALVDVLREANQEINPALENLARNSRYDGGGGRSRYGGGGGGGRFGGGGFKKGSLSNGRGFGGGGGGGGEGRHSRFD
UniProt P45975: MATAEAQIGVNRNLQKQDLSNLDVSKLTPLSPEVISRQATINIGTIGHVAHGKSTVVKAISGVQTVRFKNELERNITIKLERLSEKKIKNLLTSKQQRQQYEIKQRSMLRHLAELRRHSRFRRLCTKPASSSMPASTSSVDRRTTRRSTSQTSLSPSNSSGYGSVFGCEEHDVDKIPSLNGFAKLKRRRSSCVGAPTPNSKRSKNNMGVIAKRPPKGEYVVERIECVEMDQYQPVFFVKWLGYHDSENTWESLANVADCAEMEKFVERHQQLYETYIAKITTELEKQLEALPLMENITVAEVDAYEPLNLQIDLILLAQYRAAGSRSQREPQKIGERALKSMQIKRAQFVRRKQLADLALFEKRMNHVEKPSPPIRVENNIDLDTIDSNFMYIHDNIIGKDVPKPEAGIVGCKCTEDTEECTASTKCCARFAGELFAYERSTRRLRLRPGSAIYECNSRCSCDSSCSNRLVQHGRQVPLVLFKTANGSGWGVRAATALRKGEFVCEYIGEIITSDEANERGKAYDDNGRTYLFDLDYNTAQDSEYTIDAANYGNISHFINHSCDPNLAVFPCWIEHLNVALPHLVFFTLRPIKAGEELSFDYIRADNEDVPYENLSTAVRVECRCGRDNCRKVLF
GST SU(VAR)3-9 NT (aa 1–152): residues 1-152 of P45975

How the values were obtained:
[1] = biological target: GST-Rm62 (Drosophila melanogaster) (UniProt P19109); experiment: pull-down; GST fusion proteins on glutathione-sepharose beads incubated with [35S]-methionine-labeled in vitro translated proteins; 100 mM NaCl, 20 mM Tris-HCl pH 8.0, 1 mM EDTA, 0.5% Nonidet P-40, ethidium bromide, BSA; 0.5 h at room temperature; autoradiography; only the target purified
[2] = biological target: GST SU(VAR)3-9 NT (aa 1–152) (Drosophila melanogaster) (UniProt P45975); experiment: as above
[3] = biological target: Rm62 (endogenous, SL2 cell nuclear extract) (Drosophila melanogaster (endogenous in SL2 cells)) (UniProt P19109); experiment: co-IP; nuclear extract of copper-induced HA-SU(VAR)3-9 SL2 cells; anti-Rm62 antibody 1E7 or IgG2c isotype control, Protein A/G Sepharose, 4°C; wash BC-300 (300 mM NaCl) with 0.1% NP-40; western blot

binding [1]	binding [2]	binding [3]	Substance
binds	binds	–	Rm62, in vitro translated (from UniProt P19109 1-719)
–	–	binds	HA-SU(VAR)3-9 (from UniProt P45975 1-635)
binds	–	–	SU(VAR)3-9, in vitro translated (from UniProt P45975 1-635)
